# Measured values from patent publication US20240368239A1, “Novel bispecific protein and use thereof” (SL METAGEN, priority 2020, published 2024).
# Amino acid sequences for entries named in this document (tags omitted). Residues count along the entry.
# UniProt P43220, 24-463, species assumed: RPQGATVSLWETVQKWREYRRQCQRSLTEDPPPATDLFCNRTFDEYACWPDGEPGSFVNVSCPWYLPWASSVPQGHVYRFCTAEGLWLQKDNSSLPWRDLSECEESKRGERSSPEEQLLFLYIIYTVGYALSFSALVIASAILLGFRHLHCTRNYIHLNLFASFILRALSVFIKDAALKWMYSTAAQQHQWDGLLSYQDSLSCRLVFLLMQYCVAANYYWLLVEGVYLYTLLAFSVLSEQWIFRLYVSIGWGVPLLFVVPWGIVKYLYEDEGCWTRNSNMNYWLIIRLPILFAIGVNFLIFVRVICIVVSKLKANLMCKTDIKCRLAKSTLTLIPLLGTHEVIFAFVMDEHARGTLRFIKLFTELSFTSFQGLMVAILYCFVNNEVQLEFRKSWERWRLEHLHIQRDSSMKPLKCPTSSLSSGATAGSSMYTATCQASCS
# Some of these results come from one statement about several compounds together.
# B1: MG12-5: Knob/hole Fc heterodimer: GLP-1/Exendin 4 hybrid (SEQ 5), unmodified linker, first fusion protein SEQ 28; GLP-2 (SEQ 17), second fusion protein SEQ 34 (protein)
# chain 1: HGEGTFTSDVSSYLEGQAAKEFIAWLVKGGPSSGAPPPSGGGGSGGGGSGGGGSEKEKEEQEERTHTCPPCPSHTQPLGVFLFPPKPKDQLMISRTPEVTCVVVDVSQEDPEVQFNWYVDGVEVHNAKTKPREEQFNSTYRVVSVLTVLHQDWLNGKEYKCKVSNKGLPSSIEKTISKAKGQPREPQVYTLPPCQEEMTKNQVSLWCLVKGFYPSDIAVEWESNGQPENNYKTTPPVLDSDGSFFLYSRLTVDKSRWQEGNVFSCSVLHEALHNHYTQKSLSLSLGK
# chain 2: HGDGSFSDEMNTILDNLAARDFINWLIQTKITDGGGGSGGGGSGGGGSEKEKEEQEERTHTCPPCPSHTQPLGVFLFPPKPKDQLMISRTPEVTCVVVDVSQEDPEVQFNWYVDGVEVHNAKTKPREEQFNSTYRVVSVLTVLHQDWLNGKEYKCKVSNKGLPSSIEKTISKAKGQPREPQVCTLPPSQEEMTKNQVSLSCAVKGFYPSDIAVEWESNGQPENNYKTTPPVLDSDGSFFLVSRLTVDKSRWQEGNVFSCSVLHEALHNHYTQKSLSLSLGK
# Target: GLP-1 receptor (Homo sapiens, UniProt P43220)
# Conditions: relative to native GLP-1 peptide
molecule,measurement,value
B1,vs. GLP-1 relative activity (%),35-39%
